This is an account of results in patent publication EP3556767A1 (Universidade De Santiago De Compostela, priority 2018, dated 2019).

Some peptides are written in HELM: one residue between dots, names in brackets for other building blocks, links after the first $.

A short description of one data set: general procedure: Fmoc solid-phase peptide synthesis; Rink Amide ChemMatrix resin (loading 0.5 mmol/g) in protocol 1; Rink Amide resin (loading 0.71 mmol/g) in protocol 2; N-HBTU/DIEA (manual); DIC/Oxyma (automated). The following applies: whole synthesis, analytical HPLC, 1H-NMR and mass spectrometry, scale of the general procedure 0.5 mmol manual, 0.05 mmol automated (protocol 1), 0.1 mmol.
In the case of “PEPTIDE1{[ac].R.K.L.R.R.L.L.R.R.L.K.R.L.[am]}|PEPTIDE2{[Biot]}|PEPTIDE3{[Biot]}$PEPTIDE1,PEPTIDE2,3:R3-1:R2|PEPTIDE1,PEPTIDE3,12:R3-1:R2$$$V2.0”, the “final HPLC purity” value is on record as 100%.

The data set is the same for the next values; noted with them: whole synthesis, overall, scale of the general procedure 0.5 mmol manual, 0.05 mmol automated (protocol 1), 0.1 mmol.
Substance “PEPTIDE1{[Tm].A.R.A.A.A.A.A.A.R.A.A.A.A.A.A.R.[am]}$$$$V2.0” showed an isolated yield of 12%.

Substance “PEPTIDE1{[Tm].A.R.A.L.A.A.L.A.R.A.A.A.A.A.A.R.[am]}$$$$V2.0” returned an isolated yield of 10.7%.

For “PEPTIDE1{[Tm].A.R.A.L.A.A.L.A.R.A.L.A.A.A.A.R.[am]}$$$$V2.0”, the isolated yield is reported as 5.3%.

Take “PEPTIDE1{[Tm].L.R.A.L.A.A.L.A.R.A.A.A.A.A.A.R.[am]}$$$$V2.0”: the isolated yield is 1.7%.

“PEPTIDE1{[Tm].L.R.A.L.R.R.L.A.A.A.A.A.A.A.A.A.[am]}$$$$V2.0”: the isolated yield is 6.5%.

For “PEPTIDE1{[ac].L.R.A.L.A.A.L.A.R.A.A.A.A.A.A.R.[am]}$$$$V2.0”, the isolated yield was 1.7%.

For the substance “PEPTIDE1{[ac].R.K.L.R.R.L.L.R.R.L.K.R.L.[am]}|PEPTIDE2{[Biot]}|PEPTIDE3{[Biot]}$PEPTIDE1,PEPTIDE2,3:R3-1:R2|PEPTIDE1,PEPTIDE3,12:R3-1:R2$$$V2.0”, the isolated yield stood at 11%.

TmHexA R AALLAA R AALA3 R gave an isolated yield of 8.7%.

TmHexA R ALAALA R ALA4 R: the isolated yield is reported as 6.4%.
